PMC12499477
Results are given in words; binding and its absence hold for the method and conditions named. In cells and extracts the contact can be indirect. Some binding calls cover weakened binding; strength is not graded here.

Biological target: T1, Golgi membrane protein 1 (GOLM1) (mouse (endogenous in primary podocytes)) (UniProt Q91XA2)
T1 sequence: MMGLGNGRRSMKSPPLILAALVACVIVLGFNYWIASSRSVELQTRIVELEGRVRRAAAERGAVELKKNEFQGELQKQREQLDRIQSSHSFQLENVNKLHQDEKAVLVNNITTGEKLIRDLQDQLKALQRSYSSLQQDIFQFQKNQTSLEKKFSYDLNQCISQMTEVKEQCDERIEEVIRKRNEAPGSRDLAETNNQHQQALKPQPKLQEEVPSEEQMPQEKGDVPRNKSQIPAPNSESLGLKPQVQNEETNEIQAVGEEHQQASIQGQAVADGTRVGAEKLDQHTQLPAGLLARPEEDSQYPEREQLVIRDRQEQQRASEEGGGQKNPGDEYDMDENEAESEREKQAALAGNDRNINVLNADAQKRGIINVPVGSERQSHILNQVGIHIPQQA
Experiment: co-IP; podocyte lysates immunoprecipitated with anti-GOLM1 or IgG, then western blot for EGFR

With “epidermal growth factor receptor (EGFR) (from UniProt Q01279 25-1210)” the binding was “binds”.
